Assay results as given in publication PMC6251625.
Residue numbers refer to the chain shown, from its start. These are yes or no findings as the source states them, for the method shown. Binding seen in cells or lysates may run through a third protein. Some results given as binding are weak or reduced against the parent protein; the word gives no strength. Where a sequence is shown, tags or fusion partners need not be part of it.

Sequences of proteins named here, by UniProt entry; tags and fusion partners are left off.
UniProt Q9NVI1: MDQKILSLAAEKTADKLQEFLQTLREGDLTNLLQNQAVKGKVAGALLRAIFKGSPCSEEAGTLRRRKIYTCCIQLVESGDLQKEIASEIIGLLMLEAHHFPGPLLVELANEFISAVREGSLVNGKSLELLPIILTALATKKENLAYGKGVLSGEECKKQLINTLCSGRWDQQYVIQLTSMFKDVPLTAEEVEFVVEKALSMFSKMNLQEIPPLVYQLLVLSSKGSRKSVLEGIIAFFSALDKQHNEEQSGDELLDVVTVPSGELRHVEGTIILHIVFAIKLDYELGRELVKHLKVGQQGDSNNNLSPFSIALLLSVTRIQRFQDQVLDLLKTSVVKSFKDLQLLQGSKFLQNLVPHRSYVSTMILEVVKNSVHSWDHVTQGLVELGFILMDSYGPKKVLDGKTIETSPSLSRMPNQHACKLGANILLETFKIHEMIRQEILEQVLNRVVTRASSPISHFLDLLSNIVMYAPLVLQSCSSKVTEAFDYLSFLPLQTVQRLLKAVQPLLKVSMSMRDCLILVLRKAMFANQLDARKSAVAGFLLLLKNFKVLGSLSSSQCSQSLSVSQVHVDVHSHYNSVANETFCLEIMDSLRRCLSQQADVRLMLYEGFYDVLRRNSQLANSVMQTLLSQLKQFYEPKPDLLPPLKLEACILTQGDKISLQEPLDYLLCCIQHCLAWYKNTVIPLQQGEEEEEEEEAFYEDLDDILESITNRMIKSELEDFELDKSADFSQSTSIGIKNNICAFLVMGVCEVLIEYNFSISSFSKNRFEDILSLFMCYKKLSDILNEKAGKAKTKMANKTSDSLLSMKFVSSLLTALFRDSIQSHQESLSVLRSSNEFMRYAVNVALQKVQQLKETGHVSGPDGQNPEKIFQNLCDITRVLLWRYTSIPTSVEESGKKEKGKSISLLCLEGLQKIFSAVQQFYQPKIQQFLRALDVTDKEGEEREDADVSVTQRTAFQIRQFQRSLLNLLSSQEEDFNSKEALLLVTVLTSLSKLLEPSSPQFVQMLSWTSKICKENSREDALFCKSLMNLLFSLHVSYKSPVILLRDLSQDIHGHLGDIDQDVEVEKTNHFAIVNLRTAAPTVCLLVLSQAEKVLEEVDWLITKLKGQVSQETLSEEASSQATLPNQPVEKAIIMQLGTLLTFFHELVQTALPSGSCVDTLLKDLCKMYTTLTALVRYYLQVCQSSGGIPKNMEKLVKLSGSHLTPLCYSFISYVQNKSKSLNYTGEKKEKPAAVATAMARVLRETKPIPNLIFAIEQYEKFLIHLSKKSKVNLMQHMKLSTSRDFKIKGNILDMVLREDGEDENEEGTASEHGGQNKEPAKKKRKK
UniProt Q9BXW9: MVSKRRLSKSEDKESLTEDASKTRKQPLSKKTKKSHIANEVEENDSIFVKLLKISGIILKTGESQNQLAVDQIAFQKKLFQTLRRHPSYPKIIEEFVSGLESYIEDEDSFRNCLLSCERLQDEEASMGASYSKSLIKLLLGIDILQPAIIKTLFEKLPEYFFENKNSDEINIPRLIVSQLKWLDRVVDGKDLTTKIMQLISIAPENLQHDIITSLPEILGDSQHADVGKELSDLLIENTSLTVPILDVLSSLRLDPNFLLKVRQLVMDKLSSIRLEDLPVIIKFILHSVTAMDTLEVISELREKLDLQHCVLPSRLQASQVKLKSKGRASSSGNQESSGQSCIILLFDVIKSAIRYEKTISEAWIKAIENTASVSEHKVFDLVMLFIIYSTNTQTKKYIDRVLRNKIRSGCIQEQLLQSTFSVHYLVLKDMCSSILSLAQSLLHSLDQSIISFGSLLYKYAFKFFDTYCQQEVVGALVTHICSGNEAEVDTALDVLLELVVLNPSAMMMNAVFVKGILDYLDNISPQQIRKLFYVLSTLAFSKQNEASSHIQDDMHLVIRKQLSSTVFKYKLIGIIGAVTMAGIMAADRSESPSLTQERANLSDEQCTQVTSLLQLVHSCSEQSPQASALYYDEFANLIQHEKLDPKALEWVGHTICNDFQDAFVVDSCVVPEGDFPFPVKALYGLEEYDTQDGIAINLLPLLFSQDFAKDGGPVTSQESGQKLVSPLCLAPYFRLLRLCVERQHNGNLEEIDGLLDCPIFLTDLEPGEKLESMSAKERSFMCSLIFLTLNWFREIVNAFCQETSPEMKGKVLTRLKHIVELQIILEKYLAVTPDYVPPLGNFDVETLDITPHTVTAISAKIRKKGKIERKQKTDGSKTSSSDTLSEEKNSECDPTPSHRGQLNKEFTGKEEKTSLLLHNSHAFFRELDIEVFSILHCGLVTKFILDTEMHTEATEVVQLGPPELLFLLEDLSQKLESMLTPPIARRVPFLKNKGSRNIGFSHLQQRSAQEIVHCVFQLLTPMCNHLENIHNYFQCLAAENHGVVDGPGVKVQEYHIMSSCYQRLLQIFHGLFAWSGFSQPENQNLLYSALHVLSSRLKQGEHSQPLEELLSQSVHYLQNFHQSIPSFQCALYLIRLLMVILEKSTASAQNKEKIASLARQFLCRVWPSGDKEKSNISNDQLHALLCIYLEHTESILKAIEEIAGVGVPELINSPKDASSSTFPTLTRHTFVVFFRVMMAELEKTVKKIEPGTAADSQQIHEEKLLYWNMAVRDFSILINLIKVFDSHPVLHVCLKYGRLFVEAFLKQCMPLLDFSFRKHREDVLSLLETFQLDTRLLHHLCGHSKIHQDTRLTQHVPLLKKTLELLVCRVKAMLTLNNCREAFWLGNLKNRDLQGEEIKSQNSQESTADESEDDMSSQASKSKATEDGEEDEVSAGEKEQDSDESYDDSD

Columns and labels:
[1] = biological target: T1, GFP-PolK UBZ mutant (double ubiquitin-binding domain mutant, D644A/D799A) (human) (UniProt Q9UBT6); experiment: cross-linking + co-IP; 293T sgPolK cells expressing GFP-PolK WT or UBZ mutant, with or without HU (2 mM, 4 hr); 1% formaldehyde crosslinking 10 min, lysis in 0.3% SDS, sonication, dilution 1:8; pulldown with anti-GFP agarose beads overnight at 4°C; Western blot
T1 sequence: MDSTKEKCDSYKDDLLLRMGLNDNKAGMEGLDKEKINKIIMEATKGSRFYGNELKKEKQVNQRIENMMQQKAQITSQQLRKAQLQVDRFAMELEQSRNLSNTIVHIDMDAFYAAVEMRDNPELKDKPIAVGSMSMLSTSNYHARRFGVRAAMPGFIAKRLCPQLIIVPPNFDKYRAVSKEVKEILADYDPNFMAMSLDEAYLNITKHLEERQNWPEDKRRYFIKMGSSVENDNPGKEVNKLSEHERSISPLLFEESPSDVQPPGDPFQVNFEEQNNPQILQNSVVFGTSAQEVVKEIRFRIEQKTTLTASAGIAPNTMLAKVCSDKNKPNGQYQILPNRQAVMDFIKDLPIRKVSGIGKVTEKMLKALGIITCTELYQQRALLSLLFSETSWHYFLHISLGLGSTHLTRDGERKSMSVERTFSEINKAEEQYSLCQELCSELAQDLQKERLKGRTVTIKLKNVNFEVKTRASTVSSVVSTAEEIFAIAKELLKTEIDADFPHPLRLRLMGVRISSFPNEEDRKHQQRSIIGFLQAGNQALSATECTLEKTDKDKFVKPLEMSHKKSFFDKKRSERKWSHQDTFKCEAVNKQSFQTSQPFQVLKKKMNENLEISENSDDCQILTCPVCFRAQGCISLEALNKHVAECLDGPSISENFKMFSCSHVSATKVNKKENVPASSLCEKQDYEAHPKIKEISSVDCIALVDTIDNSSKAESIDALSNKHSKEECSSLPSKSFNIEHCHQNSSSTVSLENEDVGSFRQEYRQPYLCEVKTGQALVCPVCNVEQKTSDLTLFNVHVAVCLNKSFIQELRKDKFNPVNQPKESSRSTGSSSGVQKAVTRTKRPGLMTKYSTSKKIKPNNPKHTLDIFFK

[2] = biological target: T2, GFP-tagged PolK wild-type (translesion DNA polymerase kappa) (human) (UniProt Q9UBT6); experiment: as above
T2 sequence: T1 sequence with A644D, A799D

binding [1] | binding [2] | Substance
binds | binds | FANCI (from UniProt Q9NVI1 1-1328)
binds | binds | FANCD2 (from UniProt Q9BXW9 1-1451)
